Values are raw readings; no control value is given beside them.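 Maximum concentrations were near the MIC for antimicrobials, 500 µM for most other compounds, and as high as 1 mM for known inducer-like compounds. Deletion strains began with a tenfold smaller inoculum, and wells with growth under 10% of the overall median counted as non-growing.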
Tested on: Escherichia coli BW25113
Assay: growth (OD600 area under curve, 8 h) (OD600 x h); higher = more growth
Method: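 E. coli BW25113 reporter strains (wild type, ΔmarA, ΔsoxS, Δrob, each carrying one of 8 lux reporter plasmids) were grown in 40 µl LB in 384-well plates at 37°C, 800 rpm, with each compound at 4 two-fold concentrations, in biological duplicates. Growth is the baseline-corrected OD600 area under the curve over 8 h (0-8 h WT, 1-9 h deletion strains).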

N=C(NCCCCCCNC(=N)NC(=N)Nc1ccc(Cl)cc1)NC(=N)Nc1ccc(Cl)cc1 [Chlorhexidine]
growth
Settings | reporter plasmid: EVC | reporter plasmid: acrABp | reporter plasmid: marRABp | reporter plasmid: micFp | reporter plasmid: ompFp | reporter plasmid: robp | reporter plasmid: soxSp | reporter plasmid: tolCp
0.063 µg/ml, genetic background: wild type | 2.99 | 2.66 | 3.16 | 3.32 | 2.86 | 3.18 | 3.11 | 3.06
0.063 µg/ml, genetic background: ΔmarA | 3.05 | 4.24 | 3.67 | 3.34 | 3.49 | 3.63 | 2.91 | 2.89
0.063 µg/ml, genetic background: Δrob | 2.73 | 3.16 | 3.26 | 3.14 | 2.48 | 2.69 | 2.892 | 3.035
0.063 µg/ml, genetic background: ΔsoxS | 3.11 | 3.2 | 3.32 | 2.91 | 2.92 | 3.14 | 3.16 | 2.97
0.13 µg/ml, genetic background: wild type | 2.85 | 2.67 | 3.35 | 3.28 | 2.916 | 3.18 | 2.98 | 2.98
0.13 µg/ml, genetic background: ΔmarA | 2.85 | 3.98 | 3.56 | 3.13 | 3.37 | 3.4 | 2.68 | 2.75
0.13 µg/ml, genetic background: Δrob | 2.63 | 3.31 | 3.19 | 3.11 | 2.6 | 2.74 | 2.87 | 3.06
0.13 µg/ml, genetic background: ΔsoxS | 3.11 | 3.17 | 3.27 | 2.72 | 2.883 | 3.3 | 3.02 | 2.74
0.25 µg/ml, genetic background: wild type | 2.84 | 2.86 | 3.25 | 3.23 | 3.06 | 3.31 | 3.08 | 3.05
0.25 µg/ml, genetic background: ΔmarA | 3.05 | 3.76 | 3.59 | 3.23 | 3.46 | 3.52 | 2.8 | 2.9
0.25 µg/ml, genetic background: Δrob | 2.78 | 2.92 | 3.17 | 3.13 | 2.66 | 2.73 | 2.95 | 3.11
0.25 µg/ml, genetic background: ΔsoxS | 3.12 | 3.31 | 3.27 | 2.93 | 3.09 | 3.16 | 3.22 | 2.88
0.51 µg/ml, genetic background: wild type | 2.6 | 2.73 | 3.306 | 3.17 | 2.94 | 3.18 | 2.83 | 3.05
0.51 µg/ml, genetic background: ΔmarA | 2.55 | 3.59 | 2.973 | 3.17 | 3.14 | 3.36 | 2.51 | 2.6
0.51 µg/ml, genetic background: Δrob | 2.69 | 2.912 | 3.29 | 2.95 | 2.42 | 2.6 | 2.84 | 3.04
0.51 µg/ml, genetic background: ΔsoxS | 2.88 | 3.21 | 3.15 | 2.35 | 2.69 | 2.86 | 2.92 | 2.73

COc1cccc2c1C(=O)c1c(O)c3c(c(O)c1C2=O)C[C@@](O)(C(=O)CO)C[C@@H]3O[C@H]1C[C@H](N)[C@H](O)[C@H](C)O1 [Doxorubicin]
growth
Settings | reporter plasmid: EVC | reporter plasmid: acrABp | reporter plasmid: marRABp | reporter plasmid: micFp | reporter plasmid: ompFp | reporter plasmid: robp | reporter plasmid: soxSp | reporter plasmid: tolCp
0.29 µg/ml, genetic background: wild type | 2.94 | 2.6391 | 3.24 | 3.05 | 2.74 | 2.93 | 2.74 | 2.96
0.29 µg/ml, genetic background: ΔmarA | 3.43 | 4.3 | 3.78 | 3.29 | 3.4 | 3.78 | 3.07 | 2.96
0.29 µg/ml, genetic background: Δrob | 2.59 | 3.07 | 3.49 | 3.15 | 2.53 | 2.65 | 2.92 | 3
0.29 µg/ml, genetic background: ΔsoxS | 2.79 | 2.99 | 3.01 | 2.75 | 2.7723 | 2.94 | 2.97 | 2.8
0.58 µg/ml, genetic background: wild type | 2.64 | 2.7077 | 3.25 | 2.92 | 2.69 | 2.83 | 2.83 | 2.89
0.58 µg/ml, genetic background: ΔmarA | 3.33 | 4.51 | 3.78 | 3.28 | 3.33 | 3.91 | 3.01 | 3
0.58 µg/ml, genetic background: Δrob | 2.41 | 2.854 | 3.33 | 2.88 | 2.53 | 2.54 | 2.72 | 2.86
0.58 µg/ml, genetic background: ΔsoxS | 2.6 | 2.82 | 2.97 | 2.48 | 2.69 | 2.74 | 2.7 | 2.67
1.2 µg/ml, genetic background: wild type | 2.99 | 2.72 | 3.36 | 3.02 | 3 | 3.17 | 2.68 | 3.026
1.2 µg/ml, genetic background: ΔmarA | 3.06 | 4.32 | 3.74 | 3.32 | 3.42 | 3.64 | 3 | 3.01
1.2 µg/ml, genetic background: Δrob | 2.54 | 3.32 | 3.43 | 3.29 | 2.82 | 2.75 | 3.06 | 3.2
1.2 µg/ml, genetic background: ΔsoxS | 2.88 | 3.12 | 3.22 | 2.57 | 3.15 | 3.186 | 3.16 | 2.81
2.3 µg/ml, genetic background: wild type | 2.76 | 2.41 | 3.19 | 2.79 | 2.72 | 3.01 | 2.78 | 3.007
2.3 µg/ml, genetic background: ΔmarA | 3.06 | 4.12 | 3.37 | 3.36 | 3.07 | 3.48 | 2.9 | 2.94
2.3 µg/ml, genetic background: Δrob | 2.47 | 2.85 | 3.21 | 2.98 | 2.31 | 2.32 | 2.77 | 2.92
2.3 µg/ml, genetic background: ΔsoxS | 2.74 | 2.7 | 3 | 2.259 | 2.45 | 2.79 | 2.78 | 2.67

From the supplement of paper PMC12282887
